Reference: PubChem BioAssay AID2685 (National Center for Advancing Translational Sciences (NCATS), 2010)
Screen size: about 320,000 compounds; about 2,100 (0.66%) were called active. The inconclusive results got no clear call from the source; some entries with a clear call stand among them for comparison. Calls come from the whole dose curve; as a rule, active = well fitted inhibition curve with a large enough effect in the signal ratio, with a control signal flat (not every such curve was filed as active); inconclusive = small, poorly fitted or top-dose-only effect, or effect the other way, or a change in a side signal; inactive = flat fitted curve, though single readings scatter; the % refers to the signal ratio. Potencies of inconclusive entries are doubtful fits and often do not repeat.

Assay: qHTS Assay for Lipid Storage Modulators in Drosophila S3 Cells
Details: BODIPY lipid droplet fluorescence, 18-24 h, cells fed with added oleic acid; lipid storage change, negative = inhibition: at 46.1 µM (top of the series) unless noted
Method in brief: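 Drosophila S3 cells loaded with oleic acid (400 uM, as added) and compounds at several concentrations; lipid droplets imaged by 488-nm laser-scanning cytometry, 500–530 nm intensity and object ratio to cell channel. Percent activity normalized to 20 uM Triacsin C.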
% is set by controls: 0 for no effect and ±100 for the full control effect; potency is the fitted concentration of half-maximal effect.

SMILES | lipid storage change, negative = inhibition | Potency
O=C(CSc1nnc(-c2ccncc2)n1CCc1ccccc1)N1CCCC1 | inconclusive: 19.9% | 
COc1ccccc1NC(=O)Nc1cccc(NC(C)=O)c1 | inactive: -4.12% | 
Cc1cc(-n2c(SCC(=O)Nc3ccc(Br)cc3)nc3n[nH]c(C)c3c2=N)ccc1Cl |  | inconclusive: 29.1 µM [falling, single point]
Cc1cnc(NC(=O)CCc2ccccc2)s1 | inconclusive: 67.5% | 
COc1ccc(N2CC(C(=O)N3CCN(C)CC3)CC2=O)cc1 (configuration not stated) |  | inconclusive: 0.651 µM [activator, single point]
CCOC(=O)C1CCN(C(=O)c2c(-c3c(F)cccc3Cl)noc2C)CC1 |  | inconclusive: 2.31 µM [falling, single point]
O=C(Nc1ccccc1)Nc1cc(S(=O)(=O)N2CCOCC2)ccc1N1CCCC1 | inconclusive: 26.2% | 
O=C(NCC(=O)N1CCN(Cc2ccccc2)CC1)c1ccc(Br)o1 | inconclusive: -1.37% | 
Cc1onc(-c2ccccc2)c1C(=O)Nc1ccc(S(=O)(=O)NC2=NCCCCC2)cc1 | inconclusive: -3.89% | 
COC(=O)c1sc2nc(SCc3ccccc3C)n(N)c(=O)c2c1C | inconclusive: 20.9% | 
COc1ccc(NC(C)=O)cc1NC(=O)C1CCCN1C(=O)c1cccs1 (configuration not stated) | inconclusive | 
O=S(=O)(c1ccc(Br)c2ccccc12)N1CCOCC1 |  | inconclusive: 0.411 µM [activator, full curve, poor fit]
CCn1nnc(NC(=O)c2ccc([N+](=O)[O-])o2)n1 | inconclusive: -35.4% | 
COc1cc(C(C)=O)ccc1OCC(O)CNCC(O)c1ccccc1 (configuration not stated) | inconclusive: 10.4% | 
Cc1ccc(S(=O)(=O)Cc2ccc(C(=O)O)o2)cc1 |  | inconclusive: 29.1 µM [falling, single point]
O=C(CN1C(=O)NC2(CCSC2)C1=O)NCc1ccccc1 (configuration not stated) |  | inconclusive: 1.64 µM [falling, partial curve, poor fit]
COC(=O)CN1C(=O)COc2ccc(S(=O)(=O)N3CCOCC3)cc21 |  | inconclusive: 6.51 µM [falling, single point]
COc1ccccc1-c1cc(C(=O)N/N=C/c2ccc(C)o2)c2ccccc2n1 | inconclusive: 280% | 
Cc1cc(-c2ccc(C)c(S(=O)(=O)NCc3ccc(Br)cc3)c2)on1 |  | inconclusive: 29.1 µM [falling, single point]
CCC(C)N(C(=O)CSc1nnc(NC(C)C)s1)C1CCS(=O)(=O)C1 (configuration not stated) | inconclusive | 
COc1ccc(NC(=O)CC2Oc3ccccc3NC2=O)cc1 (configuration not stated) | inconclusive: 34.4% | 
CSc1nsc(SCC(=O)Nc2ccc(F)cc2)n1 | inconclusive: 115% | 
c1ccc(COc2ccc(Oc3nc(N4CCCCC4)nc(N4CCOCC4)n3)nn2)cc1 | inconclusive: -5.55% | 
COc1ccc(C(=O)Nc2n[nH]c(-c3ccncc3)n2)cc1 | inconclusive: 16.8% | 
COCCNC(=O)C(=O)c1cc(C)n(-c2ccc([N+](=O)[O-])cc2)c1C | inconclusive: 29.9% | 
O=C(CNCc1ccc(Cl)cc1)Nc1ccc(C(=O)N2CCCCCC2)cc1 |  | inconclusive: 0.259 µM [activator, single point]

SMILES | lipid storage change, negative = inhibition | Potency
CC(C)C(=O)NNC(=O)CSc1nnnn1C(C)C | inconclusive: 7.04% | 
O=C(/C=C/c1ccc2c(c1)OCO2)NCc1ccco1 |  | inconclusive: 1.3 µM [activator, partial curve]
COc1cc(C2CC(c3cccs3)=NN2C(=O)CCl)ccc1OC(F)F (configuration not stated) |  | active: 11.6 µM
O=C(CSc1n[nH]c(-c2ccccc2)n1)N1CCOCC1 |  | inconclusive: 13 µM [falling, single point]
CCCCN1/C(=C/c2cccc[n+]2C)Sc2cc(NC(C)=O)ccc21 |  | active: 1.3 µM
Cc1ccc2c(c1)c(C)cc(=O)n2CCC(=O)O | inconclusive: -39.9% | 
O=C(Nc1nc2c(s1)CCCC2)c1cc(-c2ccc3c(c2)OCO3)nc2ccccc12 | inconclusive: 9.09% | 
COCCNC(=O)C(NC(=O)C1CCC(C)CC1)C(C)C (configuration not stated) | inconclusive: -50% | 
Clc1ccc2c(NNc3ccccc3Cl)ccnc2c1 |  | inconclusive: 5.8 µM [falling, single point]
O=C(c1cccc([N+](=O)[O-])c1)N1CCCC(C(=O)N2CCN(c3ccccc3)CC2)C1 (configuration not stated) | inconclusive: -7.9% | 
O=C1CC(NNc2ccccc2)C(=O)N1c1ccccc1 (configuration not stated) | inconclusive: 45.5% | 
CC(=O)N1c2ccc(S(=O)(=O)N3CCC(C(=O)NC4CCCCC4)CC3)cc2CC1C (configuration not stated) | inconclusive: 0.403% | 
Clc1ccc(-c2cn(-c3ccccc3)c3[n+]2CCS3)cc1 |  | inconclusive: 0.116 µM [falling, full curve, poor fit]
O=C(CCC1CCCN(C(=O)c2ccoc2)C1)NCc1ccc(F)c(F)c1 (configuration not stated) | inconclusive: -12.8% | 
NC(=O)c1ccccc1NC(=O)COc1ccc2c(c1)OCO2 |  | inconclusive: 11.6 µM [activator, single point]
COc1ccccc1C(=O)C1CCCN(C(=O)c2cccc(Cn3cccn3)c2)C1 (configuration not stated) |  | inconclusive: 25.9 µM [falling, partial curve, poor fit]
CN(C)S(=O)(=O)c1cccc(-c2nn(-c3ccccc3)cc2/C=C2\SC(=S)NC2=O)c1 | inconclusive: -8.12% | 
CC(C(=O)Nc1ccc(C(=O)O)c(O)c1)N1C(=O)/C(=C\c2ccco2)SC1=S (configuration not stated) |  | inconclusive: 6.51 µM [falling, single point]
CC(=O)NCCSc1ccc(S(=O)(=O)N2CCCC2)cn1 | inconclusive: 22.2% | 
Cc1cc(N=Nc2ccc(C)c(N=Nc3cc(C)c(N)cc3N)c2)c(N)cc1N | inconclusive: 10% | 
CCn1c(CCCOc2ccc(Cl)cc2Cl)nnc1SCC(=O)Nc1cc(F)ccc1C |  | inconclusive: 29.1 µM [falling, single point]
CCOC(=O)N1CCN(C(=O)CCSCCc2ccncc2)CC1 | inconclusive: -23.7% | 
O=C(CC(=O)NC1CCCCC1)N/N=C/c1ccc(Cl)cc1 | inconclusive: -19.6% | 
COC(=O)c1ccccc1N/C=C1\CCc2c(c(C)nn2-c2ccccn2)C1=O | inconclusive: 105% | 
COc1ccc(C)cc1NC(=O)C1CCN(S(=O)(=O)c2c(C)noc2C)CC1 |  | inconclusive: 9.2 µM [falling, single point]
CSc1ccc(/C=C(\NC(=O)c2ccco2)C(=O)N2CCCCC2)cc1 |  | inconclusive: 16.4 µM [activator, partial curve, poor fit]

6 successive entries already listed, quoted:
SMILES | lipid storage change, negative = inhibition | Potency
CC(=O)NCCSc1ccc(S(=O)(=O)N2CCCC2)cn1 | inconclusive: 22.2% | 
Cc1cc(N=Nc2ccc(C)c(N=Nc3cc(C)c(N)cc3N)c2)c(N)cc1N | inconclusive: 10% | 
CCn1c(CCCOc2ccc(Cl)cc2Cl)nnc1SCC(=O)Nc1cc(F)ccc1C |  | inconclusive: 29.1 µM [falling, single point]
CCOC(=O)N1CCN(C(=O)CCSCCc2ccncc2)CC1 | inconclusive: -23.7% | 
O=C(CC(=O)NC1CCCCC1)N/N=C/c1ccc(Cl)cc1 | inconclusive: -19.6% | 
COC(=O)c1ccccc1N/C=C1\CCc2c(c(C)nn2-c2ccccn2)C1=O | inconclusive: 105% | 

More compounds:

SMILES | lipid storage change, negative = inhibition | Potency
C/C(=N\N(Cc1ccccc1)c1ccccc1)c1ccncc1 |  | inconclusive: 0.116 µM [rising, full curve, poor fit]
COc1ccc(CN2CCC(N3CC(C)OC(C)C3)CC2)c(OC)c1 (configuration not stated) | inconclusive: 35.8% | 
COc1ccc(-c2cc(C3CCNCC3)[nH]n2)cc1 | inconclusive: -14.4% | 
O=C(NCc1ccccc1Cl)c1ccc(NC2=NC3CS(=O)(=O)CC3S2)cc1 (configuration not stated) | inconclusive: -7.06% | 
CCN(CC(=O)NCc1ccncc1)S(=O)(=O)c1ccc(OC)cc1 | inconclusive: 77.1% | 
CCOC(=O)c1cccc(N2C(=O)Nc3ccccc3N2O)c1 |  | inconclusive: 0.092 µM [falling, single point]
CCOc1cc2c(cc1OC)C(c1cccc([N+](=O)[O-])c1)NCC2 (configuration not stated) | inconclusive: 12% [at 9.22 µM] | 
CCOC(=O)c1c(C)c(C(=O)NCc2ccc3c(c2)OCO3)c(C)n1C | inconclusive: 7.32% | 
Cc1cc(-c2ccccc2)c2ccc(NC(=O)C(C)(C)C)nc2n1 | inconclusive: -26.3% | 
CN1CCN(C(=O)Nc2ccc([N+](=O)[O-])cc2)CC1 |  | inconclusive: 0.103 µM [falling, full curve, poor fit]
COc1ccc(S(=O)(=O)NCCc2c[nH]c3ccc(Cl)cc23)cc1 |  | active: 20.6 µM
CN1CCN(CCC(=O)Nc2ccc(F)c(F)c2)CC1 | inactive: -5.86% | 
O=C(c1ccc(F)cc1)C1CCN(CCn2c(=S)[nH]c3ccccc3c2=O)CC1 | inconclusive: -3.37% | 
O=C(O)c1cnn(-c2nc(-c3cccc(F)c3)cs2)c1C(F)(F)F | inconclusive: 3.45% [at 9.22 µM] | 
O=C(OCCN1C(=O)c2ccccc2C1=O)C1CC(O)CN1S(=O)(=O)c1ccc(Cl)cc1 (configuration not stated) |  | inconclusive: 0.092 µM [activator, full curve, poor fit]
CCNC(=O)COC(=O)/C=C/c1cccs1 | inconclusive: -23.9% | 
COc1ccc(N2CCN(C(=O)CCS(=O)(=O)c3ccc(C)cc3)CC2)cc1 |  | inconclusive: 6.51 µM [activator, full curve]
COc1cccc(NC(=O)COC(=O)c2cc(=O)c3ccccc3o2)c1 | inconclusive: 27.6% | 
O=C(N/N=C/c1cc([N+](=O)[O-])ccc1O)c1cccc2cc[nH]c12 | inconclusive: -25.7% | 
O=C(N/N=C/c1cc2c(cc1Cl)OCO2)c1ccncc1 | inconclusive: 18.3% | 
O=C(COc1ccc(Cl)cc1Cl)NC(=S)Nc1ccc(CN2CCOCC2)cc1 | inconclusive: -31.5% | 
CC(C)c1ccc(NC(=O)CSc2nc3ncccc3[nH]2)cc1 |  | inconclusive: 29.1 µM [falling, single point]
CCN(CC)CCOC(c1ccccc1)c1ccc(C)cc1 (configuration not stated) | inconclusive: 5.67% | 
CO/N=C(\c1nonc1N)N1CCN(c2ccc([N+](=O)[O-])cc2Cl)CC1 | inconclusive: 54.2% | 
CC(=O)c1ccc(NC(=O)CSc2nc3[nH]ncc3c(=O)[nH]2)cc1 | inconclusive: -36.9% [at 0.0737 µM] | 
